Assay results as given in paper doi:10.1101/2025.07.14.664640.

By UniProt entry, the sequences of proteins in these tests, tags left out. Where a name states a change or a piece, a line headed by the entry shows the natural chain unless it says otherwise. Residues count along the entry.
UniProt Q14247, residues 492-550: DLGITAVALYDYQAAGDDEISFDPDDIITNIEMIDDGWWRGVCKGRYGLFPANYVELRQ
UniProt Q53T59: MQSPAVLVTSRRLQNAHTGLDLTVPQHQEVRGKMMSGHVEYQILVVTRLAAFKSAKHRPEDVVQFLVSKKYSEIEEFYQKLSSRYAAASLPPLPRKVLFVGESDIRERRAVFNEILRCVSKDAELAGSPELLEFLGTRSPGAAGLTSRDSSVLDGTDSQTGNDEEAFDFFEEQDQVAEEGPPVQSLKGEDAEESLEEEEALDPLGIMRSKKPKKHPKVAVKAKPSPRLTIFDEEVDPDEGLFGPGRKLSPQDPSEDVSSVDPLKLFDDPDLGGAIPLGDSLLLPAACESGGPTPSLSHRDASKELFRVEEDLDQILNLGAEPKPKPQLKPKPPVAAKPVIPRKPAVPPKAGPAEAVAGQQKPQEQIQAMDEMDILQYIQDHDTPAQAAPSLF

Molecular target: GST-SH3 (SH3 domain of cortactin fused to GST) (UniProt Q14247)
Test: pull-down

binding | Substance
no binding | MBP-HS1BP3 full length, PRR3.1 mutant (prolines of PRR3.1 replaced with alanine) (from UniProt Q53T59)
no binding | MBP-HS1BP3 full length, PRR3.2 mutant (prolines of PRR3.2 replaced with alanine) (from UniProt Q53T59)

These are yes or no findings as the source states them, for the method shown.
